We go through 1 molecule from patent US7598260B2, “CDK-inhibitory pyrimidines, their production and use as pharmaceutical agents” (Bayer Schering Pharma Aktiengesellschaft, priority 2001, dated 2009).

The experiment has as its system MCF-7 cells. As to the kind of experiment: Proliferation assay, crystal violet staining (cell test), MCF-7. The format is cell-based. The note with it: Homo sapiens, MCF7, comparison with known compounds. As for the experimental part: Cultivated human tumor cells (as indicated) are flattened out at a density of 5000 cells/measuring point in a 96-hole multititer plate in 200 μl of the corresponding growth medium. After 24 hours, the cells of one plate (zero-point plate) are colored with crystal violet (see below), while the medium of the other plates is replaced by fresh culture medium (200 μl), to which the test substances are added at various concentrations (0 μm, as well as in the range of 0.01-30 μm; the final concentration of the solvent dimethyl sulfoxide is 0.5%). The cells are incubated for 4 days in the presence of test substances. The cell proliferation is determined by coloring the cells with crystal violet: the cells are fixed by adding 20 μl/measuring point of a 11% glutaric aldehyde solution for 15 minutes at room temperature. After three washing cycles of the fixed cells with water, the plates are dried at room temperature. The cells are colored by adding 100 μl/measuring point of a 0.1% crystal violet solution (pH is set at 3 by adding acetic acid). […] The extinction is determined by photometry at a wavelength of 595 nm. The change of cell growth, in percent, is calculated by standardization of the measured values to the extinction values of the zero-point plate (=0%) and the extinction of the untreated (0 μm) cells (=100%).

Turning to `CCC(CO)Nc1nc(NCc2ccccc2)c2ncn(C(C)C)c2n1` (stereo not shown) [Roscovitine, reference compound], inhibition was half-maximal at 8 µM (IC50). This lies in the single-digit micromolar range.
